{
  "sequences": {"note": "Protein sequences, listed by entry. Tags and fused reporters are not part of them. Lines headed by an entry give the natural chain unless they say otherwise; changes in a name come on top.", "UniProt P62937, whole entry, looked up": "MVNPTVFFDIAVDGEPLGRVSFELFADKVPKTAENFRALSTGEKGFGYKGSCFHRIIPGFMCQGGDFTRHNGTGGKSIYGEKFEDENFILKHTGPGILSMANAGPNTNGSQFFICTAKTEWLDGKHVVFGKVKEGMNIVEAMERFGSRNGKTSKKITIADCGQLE", "UniProt Q01664": "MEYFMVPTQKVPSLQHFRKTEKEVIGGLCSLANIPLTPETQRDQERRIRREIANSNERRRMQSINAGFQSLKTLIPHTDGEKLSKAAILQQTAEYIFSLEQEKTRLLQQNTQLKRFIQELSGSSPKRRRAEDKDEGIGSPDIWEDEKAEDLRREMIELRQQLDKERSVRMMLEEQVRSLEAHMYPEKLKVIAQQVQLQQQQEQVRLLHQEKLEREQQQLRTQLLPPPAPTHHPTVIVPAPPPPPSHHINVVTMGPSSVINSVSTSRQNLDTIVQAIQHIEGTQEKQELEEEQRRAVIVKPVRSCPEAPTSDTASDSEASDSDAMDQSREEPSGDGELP", "UniProt Q02040": "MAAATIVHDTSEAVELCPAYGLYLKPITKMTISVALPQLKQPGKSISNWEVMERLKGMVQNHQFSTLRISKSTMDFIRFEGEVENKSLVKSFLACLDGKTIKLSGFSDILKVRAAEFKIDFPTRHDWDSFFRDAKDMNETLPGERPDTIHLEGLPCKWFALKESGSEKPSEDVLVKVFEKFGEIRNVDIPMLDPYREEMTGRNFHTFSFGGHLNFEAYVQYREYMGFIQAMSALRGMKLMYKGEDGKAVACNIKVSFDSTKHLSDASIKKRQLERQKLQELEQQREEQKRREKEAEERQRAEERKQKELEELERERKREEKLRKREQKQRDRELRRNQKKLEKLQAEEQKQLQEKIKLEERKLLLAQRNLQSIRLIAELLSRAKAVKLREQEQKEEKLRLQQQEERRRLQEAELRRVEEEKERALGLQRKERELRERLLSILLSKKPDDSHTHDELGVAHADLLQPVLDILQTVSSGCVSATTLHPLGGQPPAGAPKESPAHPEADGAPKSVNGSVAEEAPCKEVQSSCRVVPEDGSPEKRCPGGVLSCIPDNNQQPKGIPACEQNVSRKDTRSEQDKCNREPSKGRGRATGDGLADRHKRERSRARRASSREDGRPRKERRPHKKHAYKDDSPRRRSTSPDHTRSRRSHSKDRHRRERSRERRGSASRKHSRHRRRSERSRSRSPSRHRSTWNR", "UniProt Q02241": "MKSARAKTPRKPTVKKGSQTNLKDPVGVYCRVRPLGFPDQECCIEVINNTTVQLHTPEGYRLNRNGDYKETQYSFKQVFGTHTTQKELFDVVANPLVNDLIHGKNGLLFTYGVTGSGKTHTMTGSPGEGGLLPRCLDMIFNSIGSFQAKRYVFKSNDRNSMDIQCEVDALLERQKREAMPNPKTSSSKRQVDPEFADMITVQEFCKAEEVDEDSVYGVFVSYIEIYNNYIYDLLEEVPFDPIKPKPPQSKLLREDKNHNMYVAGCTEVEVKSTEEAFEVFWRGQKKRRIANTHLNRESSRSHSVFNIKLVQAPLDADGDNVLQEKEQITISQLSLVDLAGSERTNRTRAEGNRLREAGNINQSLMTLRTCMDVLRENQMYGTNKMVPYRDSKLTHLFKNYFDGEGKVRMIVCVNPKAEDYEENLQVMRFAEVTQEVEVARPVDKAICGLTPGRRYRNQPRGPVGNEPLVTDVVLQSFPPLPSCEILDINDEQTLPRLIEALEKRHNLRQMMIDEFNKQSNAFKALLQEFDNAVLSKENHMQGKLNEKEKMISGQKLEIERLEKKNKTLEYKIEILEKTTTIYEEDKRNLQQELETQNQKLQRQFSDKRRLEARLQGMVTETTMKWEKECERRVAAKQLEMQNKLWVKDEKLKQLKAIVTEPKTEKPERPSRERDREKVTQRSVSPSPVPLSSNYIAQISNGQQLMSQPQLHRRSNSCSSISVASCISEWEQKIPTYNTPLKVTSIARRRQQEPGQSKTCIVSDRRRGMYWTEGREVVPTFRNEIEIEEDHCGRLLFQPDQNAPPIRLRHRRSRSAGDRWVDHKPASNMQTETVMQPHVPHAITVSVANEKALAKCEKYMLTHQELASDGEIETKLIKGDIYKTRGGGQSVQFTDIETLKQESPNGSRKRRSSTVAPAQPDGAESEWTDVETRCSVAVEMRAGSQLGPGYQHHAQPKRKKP", "UniProt P63104": "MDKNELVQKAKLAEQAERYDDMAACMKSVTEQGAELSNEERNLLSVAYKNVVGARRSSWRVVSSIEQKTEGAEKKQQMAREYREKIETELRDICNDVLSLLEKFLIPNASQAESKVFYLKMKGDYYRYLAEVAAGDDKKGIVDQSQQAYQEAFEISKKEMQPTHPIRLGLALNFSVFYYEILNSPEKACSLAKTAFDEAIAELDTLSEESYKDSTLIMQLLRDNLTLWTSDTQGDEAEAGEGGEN", "UniProt P62633": "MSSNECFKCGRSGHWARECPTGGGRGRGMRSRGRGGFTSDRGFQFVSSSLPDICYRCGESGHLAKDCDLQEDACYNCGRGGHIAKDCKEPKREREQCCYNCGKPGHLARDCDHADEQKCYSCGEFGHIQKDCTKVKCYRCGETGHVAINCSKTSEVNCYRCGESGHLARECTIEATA", "UniProt P63092, whole entry": "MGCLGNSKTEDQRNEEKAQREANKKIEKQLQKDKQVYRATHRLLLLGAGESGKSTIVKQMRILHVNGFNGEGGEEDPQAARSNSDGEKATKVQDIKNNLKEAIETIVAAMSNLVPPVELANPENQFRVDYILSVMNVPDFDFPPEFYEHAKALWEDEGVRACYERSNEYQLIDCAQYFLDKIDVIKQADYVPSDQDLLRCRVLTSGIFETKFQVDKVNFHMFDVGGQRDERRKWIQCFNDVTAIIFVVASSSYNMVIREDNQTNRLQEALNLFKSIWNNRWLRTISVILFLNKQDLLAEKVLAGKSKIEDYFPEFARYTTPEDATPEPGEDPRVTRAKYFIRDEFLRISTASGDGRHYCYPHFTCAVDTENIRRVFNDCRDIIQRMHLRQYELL", "UniProt P68363, whole entry, looked up": "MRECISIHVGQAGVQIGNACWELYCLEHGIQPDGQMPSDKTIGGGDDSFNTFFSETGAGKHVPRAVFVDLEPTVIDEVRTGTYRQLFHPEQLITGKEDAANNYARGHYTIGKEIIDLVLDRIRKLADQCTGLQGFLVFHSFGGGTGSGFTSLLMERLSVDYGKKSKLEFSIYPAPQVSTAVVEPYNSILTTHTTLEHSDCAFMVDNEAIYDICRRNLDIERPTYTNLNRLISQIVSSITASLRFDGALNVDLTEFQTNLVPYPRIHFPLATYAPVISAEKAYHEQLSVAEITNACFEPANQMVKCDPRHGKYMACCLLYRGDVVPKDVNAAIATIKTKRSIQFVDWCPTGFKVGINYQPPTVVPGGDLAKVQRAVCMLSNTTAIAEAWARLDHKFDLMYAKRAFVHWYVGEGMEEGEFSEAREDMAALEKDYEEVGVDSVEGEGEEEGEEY", "UniProt Q01433": "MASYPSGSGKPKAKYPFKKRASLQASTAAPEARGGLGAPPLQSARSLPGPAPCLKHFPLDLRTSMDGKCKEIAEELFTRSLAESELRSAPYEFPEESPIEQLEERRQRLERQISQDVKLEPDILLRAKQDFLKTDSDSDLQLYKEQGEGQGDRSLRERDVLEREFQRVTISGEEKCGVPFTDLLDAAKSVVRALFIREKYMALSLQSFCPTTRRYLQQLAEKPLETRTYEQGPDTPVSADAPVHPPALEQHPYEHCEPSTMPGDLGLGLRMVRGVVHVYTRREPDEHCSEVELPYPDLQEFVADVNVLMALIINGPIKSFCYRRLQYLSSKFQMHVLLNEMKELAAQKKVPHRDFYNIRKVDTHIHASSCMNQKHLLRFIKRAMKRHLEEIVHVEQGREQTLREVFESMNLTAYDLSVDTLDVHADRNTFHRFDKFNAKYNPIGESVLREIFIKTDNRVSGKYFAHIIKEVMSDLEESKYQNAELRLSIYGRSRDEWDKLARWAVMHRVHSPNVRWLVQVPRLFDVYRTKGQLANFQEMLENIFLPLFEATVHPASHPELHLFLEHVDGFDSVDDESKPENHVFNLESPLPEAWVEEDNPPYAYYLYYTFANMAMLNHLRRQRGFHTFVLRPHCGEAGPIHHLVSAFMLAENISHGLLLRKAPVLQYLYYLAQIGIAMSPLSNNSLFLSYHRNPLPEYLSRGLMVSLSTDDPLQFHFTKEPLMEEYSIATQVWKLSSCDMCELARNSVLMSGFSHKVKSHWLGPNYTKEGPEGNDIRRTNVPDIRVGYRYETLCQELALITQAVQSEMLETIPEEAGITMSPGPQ", "UniProt P67775, whole entry, looked up": "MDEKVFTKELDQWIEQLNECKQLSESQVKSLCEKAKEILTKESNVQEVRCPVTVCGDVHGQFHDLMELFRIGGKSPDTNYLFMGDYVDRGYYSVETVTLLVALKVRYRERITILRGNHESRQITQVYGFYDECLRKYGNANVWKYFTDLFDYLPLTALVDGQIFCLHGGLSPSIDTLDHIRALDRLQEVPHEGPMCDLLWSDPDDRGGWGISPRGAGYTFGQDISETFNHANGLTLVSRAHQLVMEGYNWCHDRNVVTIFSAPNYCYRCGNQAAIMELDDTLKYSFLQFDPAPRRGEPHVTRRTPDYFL", "UniProt Q00796": "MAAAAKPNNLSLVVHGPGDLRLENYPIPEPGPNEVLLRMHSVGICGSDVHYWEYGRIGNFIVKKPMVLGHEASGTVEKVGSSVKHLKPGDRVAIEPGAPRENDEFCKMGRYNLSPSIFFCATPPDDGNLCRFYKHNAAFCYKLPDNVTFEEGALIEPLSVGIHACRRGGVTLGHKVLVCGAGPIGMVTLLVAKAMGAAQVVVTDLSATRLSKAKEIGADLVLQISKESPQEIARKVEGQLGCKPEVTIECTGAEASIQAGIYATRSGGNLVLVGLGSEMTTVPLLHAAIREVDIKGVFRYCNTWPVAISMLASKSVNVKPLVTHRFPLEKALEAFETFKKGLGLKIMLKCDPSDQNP", "UniProt P62330": "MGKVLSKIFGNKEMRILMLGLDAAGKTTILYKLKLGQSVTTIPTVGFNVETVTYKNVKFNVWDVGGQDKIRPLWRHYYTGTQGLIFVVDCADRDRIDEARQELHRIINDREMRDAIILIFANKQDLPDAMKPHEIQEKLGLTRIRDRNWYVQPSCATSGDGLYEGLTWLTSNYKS", "UniProt Q00341": "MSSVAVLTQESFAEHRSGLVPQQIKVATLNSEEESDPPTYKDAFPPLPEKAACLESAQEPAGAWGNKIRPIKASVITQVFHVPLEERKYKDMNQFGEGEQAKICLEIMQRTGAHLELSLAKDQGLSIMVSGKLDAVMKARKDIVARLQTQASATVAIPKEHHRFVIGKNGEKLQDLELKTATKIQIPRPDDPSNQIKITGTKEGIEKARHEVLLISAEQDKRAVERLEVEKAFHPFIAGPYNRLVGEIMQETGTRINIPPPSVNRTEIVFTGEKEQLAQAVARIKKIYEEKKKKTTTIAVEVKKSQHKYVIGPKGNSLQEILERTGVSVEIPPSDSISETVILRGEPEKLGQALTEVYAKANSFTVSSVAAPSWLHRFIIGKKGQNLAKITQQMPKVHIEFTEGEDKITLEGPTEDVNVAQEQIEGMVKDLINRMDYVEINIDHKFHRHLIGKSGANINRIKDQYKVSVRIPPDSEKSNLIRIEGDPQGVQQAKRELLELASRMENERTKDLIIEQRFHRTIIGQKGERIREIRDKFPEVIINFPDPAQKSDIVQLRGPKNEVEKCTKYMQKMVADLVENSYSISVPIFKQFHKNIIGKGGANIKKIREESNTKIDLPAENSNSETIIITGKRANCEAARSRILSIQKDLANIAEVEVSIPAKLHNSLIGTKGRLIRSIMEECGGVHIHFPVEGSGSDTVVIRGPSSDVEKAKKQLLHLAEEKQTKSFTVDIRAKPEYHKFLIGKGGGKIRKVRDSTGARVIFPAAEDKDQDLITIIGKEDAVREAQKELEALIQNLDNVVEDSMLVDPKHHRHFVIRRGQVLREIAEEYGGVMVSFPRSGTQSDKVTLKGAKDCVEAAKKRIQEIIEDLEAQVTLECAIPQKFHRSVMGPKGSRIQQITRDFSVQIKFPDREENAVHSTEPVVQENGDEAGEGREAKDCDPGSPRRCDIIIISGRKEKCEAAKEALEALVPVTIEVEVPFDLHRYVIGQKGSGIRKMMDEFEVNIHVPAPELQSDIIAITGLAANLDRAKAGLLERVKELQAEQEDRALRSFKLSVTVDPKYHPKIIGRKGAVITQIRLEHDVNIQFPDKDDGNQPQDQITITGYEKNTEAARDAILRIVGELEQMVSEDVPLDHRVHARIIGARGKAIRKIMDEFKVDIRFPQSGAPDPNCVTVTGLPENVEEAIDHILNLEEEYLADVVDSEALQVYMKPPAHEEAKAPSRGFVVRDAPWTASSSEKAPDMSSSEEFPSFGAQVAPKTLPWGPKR", "UniProt P63241": "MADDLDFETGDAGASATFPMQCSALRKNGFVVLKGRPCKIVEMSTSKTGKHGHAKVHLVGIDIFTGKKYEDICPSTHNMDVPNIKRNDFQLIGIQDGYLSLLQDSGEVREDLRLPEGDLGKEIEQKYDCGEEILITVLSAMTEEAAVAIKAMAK"},
  "source": "the supplement of paper PMC11006884",
  "note": "The entries are a selection whose mix differs from that of the whole data set.",
  "data": [
    {"compound": "COC(=O)C#Cc1ccccc1 [methyl 3-phenylpropiolate]", "test": "log2 ratio of iodoacetamide-alkyne labeling of the cysteine site, DMSO over compound (competition); higher = stronger covalent engagement of the cysteine by the compound, active = 1 or more", "conditions": "500 µM; treatment time 1 h; system: HEK293T cell lysate", "method_in_brief": "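Three replicates, each with duplicate channels, were prepared from HEK293T lysate (2 mg/mL) treated with vehicle or electrophile at 500 µM for 1 h at ambient temperature. Iodoacetamide alkyne was then applied for 1 h, and samples were clicked to sCIP-TMT reagents, pooled, trypsin-digested overnight at 37 °C, enriched on streptavidin, acid-eluted and analysed on Orbitrap Eclipse LC-MS/MS with FAIMS, with FragPipe quantification. The log2 competition ratio per cysteine is the mean control-channel divided by the mean compound-channel reporter intensity. Cysteines quantified in only one replicate were left out.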", "values": [
      {"target": "PPIA C52 (UniProt P62937)", "log2 ratio of iodoacetamide-alkyne labeling": "inactive: 0.0298"},
      {"target": "SPTBN1 C1900 (UniProt Q01082)", "log2 ratio of iodoacetamide-alkyne labeling": "inactive: 0.153"},
      {"target": "TFAP4 C29 (UniProt Q01664)", "log2 ratio of iodoacetamide-alkyne labeling": "inactive: 0.367"},
      {"target": "UniProt Q02040_C579", "log2 ratio of iodoacetamide-alkyne labeling": "inactive: 0.722"},
      {"target": "UniProt P78527_C3420", "log2 ratio of iodoacetamide-alkyne labeling": "inactive: 0.785"},
      {"target": "KIF23 C933 (UniProt Q02241)", "log2 ratio of iodoacetamide-alkyne labeling": "inactive: 0.634"},
      {"target": "YWHAZ C94 (UniProt P63104)", "log2 ratio of iodoacetamide-alkyne labeling": "inactive: 0.0183"},
      {"target": "OTUD4 C903 (UniProt Q01804)", "log2 ratio of iodoacetamide-alkyne labeling": "inactive: 0.488"},
      {"target": "CNBP C111 (UniProt P62633)", "log2 ratio of iodoacetamide-alkyne labeling": "inactive: -0.136"},
      {"target": "GNAS C174 (UniProt P63092)", "log2 ratio of iodoacetamide-alkyne labeling": "inactive: -0.492"},
      {"target": "UniProt P68363_C316", "log2 ratio of iodoacetamide-alkyne labeling": "inactive: 0.118"},
      {"target": "AMPD2 C107 (UniProt Q01433)", "log2 ratio of iodoacetamide-alkyne labeling": "inactive: 0.857"},
      {"target": "PPP2CA C20 (UniProt P67775)", "log2 ratio of iodoacetamide-alkyne labeling": "inactive: 0.143"},
      {"target": "SORD C350 (UniProt Q00796)", "log2 ratio of iodoacetamide-alkyne labeling": "inactive: 0.259"},
      {"target": "UniProt P62330_C155", "log2 ratio of iodoacetamide-alkyne labeling": "inactive: 0.452"},
      {"target": "RPS27A C145 (UniProt P62979)", "log2 ratio of iodoacetamide-alkyne labeling": "inactive: 0.532"},
      {"target": "FOXK1 C254 (UniProt P85037)", "log2 ratio of iodoacetamide-alkyne labeling": "active: 1.18"},
      {"target": "UniProt Q00341_C636", "log2 ratio of iodoacetamide-alkyne labeling": "inactive: 0.127"},
      {"target": "UniProt P63241_C129", "log2 ratio of iodoacetamide-alkyne labeling": "inactive: -0.068"},
      {"target": "UniProt Q02040_C549", "log2 ratio of iodoacetamide-alkyne labeling": "active: 1.74"},
      {"target": "UniProt P62753_C100", "log2 ratio of iodoacetamide-alkyne labeling": "inactive: 0.346"},
      {"target": "UniProt P62857_C27", "log2 ratio of iodoacetamide-alkyne labeling": "inactive: 0.487"},
      {"target": "UniProt P62854_C74", "log2 ratio of iodoacetamide-alkyne labeling": "inactive: 0.434"}
    ]}
  ]
}
